Results are given in words; binding and its absence hold for the method and conditions named. Some binding calls cover weakened binding; strength is not graded here.
Columns and labels:
[1] = molecular target: T1, soluble dimeric erythropoietin receptor (EpoRFc) (human) (UniProt P19235); test: BIAcore, EpoRFc captured on goat anti-human IgG Fc; Epo as competitor
T1 sequence (looked up): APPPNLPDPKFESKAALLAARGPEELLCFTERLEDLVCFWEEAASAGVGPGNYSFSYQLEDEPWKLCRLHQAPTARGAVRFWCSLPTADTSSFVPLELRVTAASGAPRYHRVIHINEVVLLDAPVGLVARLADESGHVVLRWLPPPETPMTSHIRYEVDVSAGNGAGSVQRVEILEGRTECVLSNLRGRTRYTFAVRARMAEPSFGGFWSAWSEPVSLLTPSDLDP

[2] = molecular target: T1, soluble dimeric erythropoietin receptor (EpoRFc) (human); test: immunoassay, EpoR-Fc coated at 0.5 ug/ml, Eu3+-labelled anti-mouse detection, with or without 3 ug/ml soluble EpoR
[3] = molecular target: T2, soluble monomeric erythropoietin receptor (EpoR) (human) (UniProt P19235); test: immunoassay, soluble EpoR (3 ug/ml) displaces the mAb from coated EpoR-Fc
T2 sequence (looked up): T1 sequence (looked up)

Measured: binding

B1: murine monoclonal antibody 3G9 (antibody, V domains shown)
VH: QVQLQQPGAELVKSGASVKLSCKASGSTFTSYWMHWVKQRPGRGLEWIGRIDPNSGGTKDNEKFKSKATLTVDKPSSTAYMQLSSLTSEDSAVYYCARETYYDSSFAYWGQGTLVTVSA
VL: DIVMTQSQKFMSTSVGDRVSVTCKASQNVGTNVAWYQQKPGQSPKALIYSASYRYSGVPDRFTGSGSGTDFTLTISNVQSEDLAEYFCQQYNSYPLTFGAGTKLELKR
modifications: amino terminus of the heavy chain blocked with pyroglutamic acid
notes: Mouse hybridoma antibody; also called 3G9 mAb; Mab 3G9
binds: all assays above

From US6998124 (GlaxoSmithKline, dated 2006)
